Measurements published in patent US10604782B2, “High-throughput fluorescent screening assay for inhibitors of gram-negative bacterial iron uptake” (Kansas State University Research Foundation, priority 2015, dated 2020).
At least one compound was matched to its structure with a doubt left.

Test system: TonB
Type: cell-based, Escherichia coli
Details: halo increase >5% or no halo; killing prevented by >5%

## O=c1c2ccccc2[se]n1-c1ccccc1 [Ebselen]
  inhibition in the secondary screens (FeEnt utilization, Fc utilization, ColB killing): inhibition in all three of the three secondary screens
